No end group written: not given here.
Experiment: general procedure: Boc solid-phase peptide synthesis; p-methyl BHA resin; HOBt/DCC
Conditions: whole synthesis, scale 0.23 g resin

SAGATANLPRS-NH2
isolated mass: 71 mg

Source: patent publication US7217808B2 (Takeda Pharmaceutical Company, Ltd., priority 2001, dated 2007)
